No constants are given. Whether binding was seen depends on the method and setting. Binding seen in cells or lysates may run through a third protein. Binding can be weak; no strength is given. Sequences can lack the tags named with a protein.
Legend:
Assay in all cases: co-IP; FLAG- and GFP-tagged proteins coexpressed in HEK293 cells, immunoprecipitation with anti-FLAG antibody, Western blotting with anti-FLAG and anti-GFP antibodies
FLAG-mLgl2-C = target: T1, FLAG-mLgl2-C (UniProt Q3TJ91)
T1 sequence: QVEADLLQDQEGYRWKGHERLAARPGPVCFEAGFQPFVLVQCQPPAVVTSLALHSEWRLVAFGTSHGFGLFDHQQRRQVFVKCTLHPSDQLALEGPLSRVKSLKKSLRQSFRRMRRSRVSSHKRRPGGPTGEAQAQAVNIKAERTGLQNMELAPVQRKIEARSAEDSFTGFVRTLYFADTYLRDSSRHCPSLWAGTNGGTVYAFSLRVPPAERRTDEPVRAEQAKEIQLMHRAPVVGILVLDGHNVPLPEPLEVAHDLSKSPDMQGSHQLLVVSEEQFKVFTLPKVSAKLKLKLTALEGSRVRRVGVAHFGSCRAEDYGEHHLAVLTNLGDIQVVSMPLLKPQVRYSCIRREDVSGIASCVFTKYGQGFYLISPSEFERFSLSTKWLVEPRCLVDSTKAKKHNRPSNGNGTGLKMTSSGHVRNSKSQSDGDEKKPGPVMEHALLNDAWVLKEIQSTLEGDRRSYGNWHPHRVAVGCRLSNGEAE

FLAG-mLgl1 = target: T2, FLAG-mLgl1 (UniProt Q80Y17)
T2 sequence: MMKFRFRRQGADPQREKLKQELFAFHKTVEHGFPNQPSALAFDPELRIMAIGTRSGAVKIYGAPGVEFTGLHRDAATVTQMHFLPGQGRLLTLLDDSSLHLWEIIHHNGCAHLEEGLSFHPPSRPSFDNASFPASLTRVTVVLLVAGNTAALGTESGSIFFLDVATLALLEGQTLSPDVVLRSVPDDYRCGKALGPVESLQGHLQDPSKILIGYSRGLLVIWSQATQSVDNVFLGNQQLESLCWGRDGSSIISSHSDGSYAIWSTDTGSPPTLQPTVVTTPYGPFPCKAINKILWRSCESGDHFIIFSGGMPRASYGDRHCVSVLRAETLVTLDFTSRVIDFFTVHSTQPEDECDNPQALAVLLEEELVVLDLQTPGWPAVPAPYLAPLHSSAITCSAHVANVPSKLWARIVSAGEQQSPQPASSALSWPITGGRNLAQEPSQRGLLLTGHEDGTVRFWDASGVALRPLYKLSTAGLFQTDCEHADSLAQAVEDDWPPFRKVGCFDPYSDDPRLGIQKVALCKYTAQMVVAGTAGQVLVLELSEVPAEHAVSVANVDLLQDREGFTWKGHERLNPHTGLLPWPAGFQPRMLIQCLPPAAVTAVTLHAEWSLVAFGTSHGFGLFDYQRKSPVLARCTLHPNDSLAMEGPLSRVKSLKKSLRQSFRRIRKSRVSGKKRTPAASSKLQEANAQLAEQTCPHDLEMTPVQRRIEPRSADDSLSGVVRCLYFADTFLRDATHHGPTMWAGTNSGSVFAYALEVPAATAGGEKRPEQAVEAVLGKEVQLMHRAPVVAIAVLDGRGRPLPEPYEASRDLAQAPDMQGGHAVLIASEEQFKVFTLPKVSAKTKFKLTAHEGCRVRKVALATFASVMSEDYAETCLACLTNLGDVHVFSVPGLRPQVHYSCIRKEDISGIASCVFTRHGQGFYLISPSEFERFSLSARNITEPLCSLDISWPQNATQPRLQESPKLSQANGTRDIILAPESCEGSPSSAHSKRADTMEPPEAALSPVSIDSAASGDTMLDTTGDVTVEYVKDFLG

FLAG-mLgl2-WT = target: T3, FLAG-mLgl2-WT (UniProt Q3TJ91)
T3 sequence: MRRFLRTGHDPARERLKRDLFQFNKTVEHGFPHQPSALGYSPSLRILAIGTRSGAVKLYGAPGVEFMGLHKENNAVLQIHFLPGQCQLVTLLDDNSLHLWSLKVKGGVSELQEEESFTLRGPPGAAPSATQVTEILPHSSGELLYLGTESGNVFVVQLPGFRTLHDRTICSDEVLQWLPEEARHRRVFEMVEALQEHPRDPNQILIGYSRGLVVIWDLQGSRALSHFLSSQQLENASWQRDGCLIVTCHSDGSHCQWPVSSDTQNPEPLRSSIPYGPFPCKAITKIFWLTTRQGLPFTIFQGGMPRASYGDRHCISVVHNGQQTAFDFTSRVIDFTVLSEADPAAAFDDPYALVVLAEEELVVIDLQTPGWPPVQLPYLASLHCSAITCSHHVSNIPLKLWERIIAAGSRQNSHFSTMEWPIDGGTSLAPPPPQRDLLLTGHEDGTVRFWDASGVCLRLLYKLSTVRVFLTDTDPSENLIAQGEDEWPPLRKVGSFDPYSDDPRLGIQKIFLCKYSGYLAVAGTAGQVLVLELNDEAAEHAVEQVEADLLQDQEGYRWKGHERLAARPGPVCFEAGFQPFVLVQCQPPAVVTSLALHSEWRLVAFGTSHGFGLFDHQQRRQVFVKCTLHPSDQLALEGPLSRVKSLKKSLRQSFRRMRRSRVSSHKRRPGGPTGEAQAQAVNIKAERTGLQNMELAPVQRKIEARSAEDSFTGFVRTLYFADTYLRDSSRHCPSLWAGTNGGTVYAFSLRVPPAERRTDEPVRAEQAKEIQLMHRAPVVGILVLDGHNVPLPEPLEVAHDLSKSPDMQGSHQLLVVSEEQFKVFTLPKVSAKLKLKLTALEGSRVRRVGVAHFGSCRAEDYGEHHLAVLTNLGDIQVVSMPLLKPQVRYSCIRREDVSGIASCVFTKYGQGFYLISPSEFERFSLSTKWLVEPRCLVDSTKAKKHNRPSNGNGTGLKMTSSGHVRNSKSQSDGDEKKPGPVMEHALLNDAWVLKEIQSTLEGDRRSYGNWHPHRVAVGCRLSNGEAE

Measured: binding

GFP-VprBP-WT (GFP-tagged shorter VprBP isoform) (human)
binds: all assays above

— publication PMC2903597
